The test has as its system CD2F1 mice, L1210 leukemia ip, survival T/C. As to the kind of experiment: NCI In Vivo Anticancer Drug Screen. Data for tumor model L1210 Leukemia (intraperitoneal) in CD2F1 (CDF1) mice. As to conditions: higher T/C = longer survival. Put shortly:
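Each value reflects a quotient of treated over vehicle control outcomes in mice with a transplanted tumor.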

Setting [1] is: T/C endpoint: mean survival time, dose: 400.0 mg/kg/injection, schedule: Q04DX003 (ip), vehicle: saline.
[2] abbreviates: T/C endpoint: mean survival time, dose: 400.0 mg/kg/injection, schedule: Q01DX009 (ip), vehicle: saline with Tween-80.
[3] abbreviates: T/C endpoint: mean survival time, dose: 200.0 mg/kg/injection, schedule: Q01DX009 (ip), vehicle: saline with Tween-80.
[4] abbreviates: T/C endpoint: mean survival time, dose: 100.0 mg/kg/injection, schedule: Q04DX002 (ip), vehicle: saline with Tween-80.
Where [5] appears, read: T/C endpoint: mean survival time, dose: 25.0 mg/kg/injection, schedule: Q01DX009 (ip), vehicle: saline with Tween-80.
Setting [6] is: T/C endpoint: mean survival time, dose: 400.0 mg/kg/injection, schedule: Q04DX003 (ip), vehicle: saline with Tween-80.

The list shows only some results of the screen, not a fair sample: it gathers tests that were run many times, whatever their T/C, doses with no T/C, and many T/C values between a quarter and a half above the control. Other doses and runs of a compound stand elsewhere. T/C: endpoint of the treated group in % of that of the vehicle group. Some doses have a count of surviving animals in place of a T/C: the source holds a T/C of zero for them, seemingly a mark for toxic or unscored doses. Some doses without a T/C left all or most animals alive at the check, yet need not have been tolerated: survival well below the control is almost never listed, so the zero probably covers shortened survival too. Survivors were counted at the toxicity check, usually on the fifth day, unless a day is given; later deaths do not show. Schedules are NCI's codes, read here as Q, the interval in days (D) or hours (H), X, the number of doses. For survival time, this PubChem deposit counts one and a half times the control or more as active, and values a quarter to a half above the control carry no call in these data; other NCI protocols may use other cut-offs. Some entries were tested several times; the values are given in rising order.

With `CC(=O)NC1=C(N2CC2)C(=O)C(NC(C)=O)=C(N2CC2)C1=O`, the T/C reads like this: (T/C endpoint: mean survival time, dose: 0.25 mg/kg/injection, schedule: Q01DX009 (ip), vehicle: saline) 129 and 146 % of control; (T/C endpoint: mean survival time, dose: 1.0 mg/kg/injection, schedule: Q04DX003 (ip), vehicle: saline) 147 % of control. The survivor count is, setting by setting: (T/C endpoint: mean survival time, dose: 4.0 mg/kg/injection, schedule: Q01DX007 (ip), vehicle: saline) 6 of 6; (T/C endpoint: mean survival time, dose: 4.0 mg/kg/injection, schedule: Q01DX009 (ip), vehicle: saline) 6 of 6.
Consider `CCCCCCCCCCCCCCOc1ccc(OCCCCCCCCCCC)cc1`, for which, for the setting “T/C endpoint: mean survival time, dose: 100.0 mg/kg/injection, schedule: Q01DX001 (ip), vehicle: saline with Tween-80”, the survivor count is listed as 6 of 6.
With `COc1c(O)c2c(c3cc(C(=O)N4CCc5c4c(O)c(OC)c4[nH]c(C(=O)N6CC7CC78C6=CC(=O)c6[nH]cc(C)c68)cc54)[nH]c13)CCN2C(N)=O` (stereo unspecified), the T/C was 138 % of control (T/C endpoint: mean survival time, dose: 3.0 micrograms/kg/injection, schedule: Q01DX009 (ip), vehicle: other); 128 % of control (T/C endpoint: mean survival time, dose: 3.0 micrograms/kg/injection, schedule: Q04DX003 (ip), vehicle: other); 136 % of control (T/C endpoint: mean survival time, dose: 10.0 micrograms/kg/injection, schedule: Q01DX009 (ip), vehicle: other); 144 % of control (T/C endpoint: mean survival time, dose: 10.0 micrograms/kg/injection, schedule: Q04DX003 (ip), vehicle: other); 130 % of control (T/C endpoint: mean survival time, dose: 11.0 micrograms/kg/injection, schedule: Q01DX009 (ip), vehicle: other); 125 % of control (T/C endpoint: mean survival time, dose: 15.0 micrograms/kg/injection, schedule: Q04DX003 (ip), vehicle: other). For the same molecule, the T/C runs as follows: (T/C endpoint: mean survival time, dose: 16.6 micrograms/kg/injection, schedule: Q01DX009 (ip), vehicle: other) 131 % of control; (T/C endpoint: mean survival time, dose: 25.0 micrograms/kg/injection, schedule: Q01DX009 (ip), vehicle: other) 133 % of control; (T/C endpoint: mean survival time, dose: 30.0 micrograms/kg/injection, schedule: Q04DX003 (ip), vehicle: other) 134 % of control; (T/C endpoint: mean survival time, dose: 37.5 micrograms/kg/injection, schedule: Q01DX009 (ip), vehicle: other) 137 % of control; (T/C endpoint: mean survival time, dose: 56.3 micrograms/kg/injection, schedule: Q01DX009 (ip), vehicle: other) 131 % of control; (T/C endpoint: mean survival time, dose: 88.0 micrograms/kg/injection, schedule: Q01DX001 (ip), vehicle: other) 125 % of control. The T/C was 131 % of control (T/C endpoint: mean survival time, dose: 133.0 micrograms/kg/injection, schedule: Q01DX001 (ip), vehicle: other); 133 % of control (T/C endpoint: mean survival time, dose: 200.0 micrograms/kg/injection, schedule: Q01DX001 (ip), vehicle: other); 148 % of control (T/C endpoint: mean survival time, dose: 300.0 micrograms/kg/injection, schedule: Q01DX001 (ip), vehicle: other); 143 % of control (T/C endpoint: mean survival time, dose: 450.0 micrograms/kg/injection, schedule: Q01DX001 (ip), vehicle: other). Besides, the survivor count is, setting by setting: (T/C endpoint: mean survival time, dose: 100.0 micrograms/kg/injection, schedule: Q01DX009 (ip), vehicle: other) 3 of 6; (T/C endpoint: mean survival time, dose: 300.0 micrograms/kg/injection, schedule: Q04DX003 (ip), vehicle: other) 1 of 6.
On to `COc1ccc(C(O)C#N)cc1O` (stereo unspecified), for which the survivor count by setting is: (T/C endpoint: mean survival time, dose: 25.0 mg/kg/injection, schedule: Q04DX003 (ip), vehicle: saline) 1 of 6; (T/C endpoint: mean survival time, dose: 100.0 mg/kg/injection, schedule: Q04DX003 (ip), vehicle: saline) 0 of 6; (T/C endpoint: mean survival time, dose: 200.0 mg/kg/injection, schedule: Q04DX003 (ip), vehicle: saline) 0 of 6; under setting [1], 0 of 6.
On to `CC(N)C(=O)c1ccccc1` (stereo unspecified), for which the survivor count under setting [1] is recorded as 0 of 6.
Consider `CCOc1cccc(Cl)n1`, for which, under setting [2], the survivor count is 1 of 6.
Regarding `COC(=O)CCC(C)C1CCC2C3C(O)CC4CC(O)CCC4(C)C3CC(O)C12C` (stereo unspecified), the survivor count runs as follows: under setting [3], 3 of 6; under setting [2], 0 of 6.
As to `CCCCC(CC)COc1ccc(N=C(N)N=C(N)N)cc1` (stereo unspecified), the survivor count under setting [4] was 0 of 3.
Regarding `Cc1nc(N)[nH]c(=O)c1[N+](=O)[O-]`, under “T/C endpoint: mean survival time, dose: 400.0 mg/kg/injection, schedule: Q04DX003 (ip), vehicle: other”, the survivor count was 2 of 6.
As to `O=C(CCCCCCCCC(=O)N/N=C\c1ccccc1O)N/N=C\c1ccccc1O`, the survivor count reads like this: under setting [5], 6 of 6; (T/C endpoint: mean survival time, dose: 50.0 mg/kg/injection, schedule: Q01DX009 (ip), vehicle: saline with Tween-80) 6 of 6.
For `N=C(N)c1ccc(OCCOc2cccc(N)c2)cc1`, the survivor count is 3 of 6 under setting [3] and 2 of 6 under setting [2].
Consider `Nc1nc(N)c(N)c(NC(c2ccccc2)c2ccccc2)n1`, for which the survivor count is reported as 0 of 6 (T/C endpoint: mean survival time, dose: 150.0 mg/kg/injection, schedule: Q01DX001 (ip), vehicle: other) and 0 of 6 (T/C endpoint: mean survival time, dose: 300.0 mg/kg/injection, schedule: Q01DX001 (ip), vehicle: other).
Regarding `CCOP(=O)(N1CC1(C)C)N1CC1(C)C` (stereo unspecified), the T/C (T/C endpoint: mean survival time, dose: 20.0 mg/kg/injection, schedule: Q01DX009 (ip), vehicle: saline) is 132 % of control.
With `CO[C@]12[C@@H](COC(N)=O)C3=C(C(=O)C(C)=C(NCC4CCCO4)C3=O)N1C[C@@H]1[C@H]2N1C` (stereo partly specified), the T/C (T/C endpoint: mean survival time, dose: 50.0 mg/kg/injection, schedule: Q01DX001 (ip), vehicle: distilled water + Tween-80) was 146 % of control and the T/C (T/C endpoint: mean survival time, dose: 96.0 mg/kg/injection, schedule: Q01DX001 (ip), vehicle: distilled water + Tween-80) was 132 % of control. Moreover, the survivor count (T/C endpoint: mean survival time, dose: 200.0 mg/kg/injection, schedule: Q01DX001 (ip), vehicle: distilled water + Tween-80) is 1 of 6.
`CN(C)C(=S)Nc1ccccc1`: under setting [2], the survivor count was 3 of 6.
As to `COc1cccc(/C=N/NC(=O)c2ccccc2N2CCCC2)c1O`, the survivor count (T/C endpoint: mean survival time, dose: 400.0 mg/kg/injection, schedule: Q01DX009 (ip), vehicle: olive oil, sesame oil, peanut oil) is listed as 6 of 6.
`F[C](F)(F)[Hg][Br]`: the survivor count (T/C endpoint: mean survival time, dose: 100.0 mg/kg/injection, schedule: Q04DX002 (ip), vehicle: saline) is 0 of 3; the survivor count (T/C endpoint: mean survival time, dose: 200.0 mg/kg/injection, schedule: Q04DX002 (ip), vehicle: saline) is 0 of 3; the survivor count (T/C endpoint: mean survival time, dose: 400.0 mg/kg/injection, schedule: Q04DX002 (ip), vehicle: saline) is recorded as 0 of 3.
In the case of `C=C[CH2][Sn]([Br])([c]1ccccc1)[c]1ccccc1`, the survivor count (T/C endpoint: mean survival time, dose: 12.5 mg/kg/injection, schedule: Q01DX009 (ip), vehicle: saline with Tween-80) was 3 of 6; the survivor count under setting [5] is 1 of 6; the survivor count (T/C endpoint: mean survival time, dose: 50.0 mg/kg/injection, schedule: Q04DX002 (ip), vehicle: saline with Tween-80) is listed as 0 of 3; the survivor count under setting [4] is 0 of 3.
Consider `CC1NC(=O)OC1(C)C(C)(C)C` (stereo unspecified), for which the survivor count reads like this: (T/C endpoint: mean survival time, dose: 100.0 mg/kg/injection, schedule: Q04DX003 (ip), vehicle: saline with Tween-80) 0 of 6; (T/C endpoint: mean survival time, dose: 200.0 mg/kg/injection, schedule: Q04DX003 (ip), vehicle: saline with Tween-80) 0 of 6; under setting [6], 0 of 6.
`NC(=O)OCCc1c2ccccc2nc2ccccc12`: the survivor count (T/C endpoint: mean survival time, dose: 200.0 mg/kg/injection, schedule: Q04DX002 (ip), vehicle: saline with Tween-80) was 3 of 3.
For `COC1CCC(/C=C(\C#N)C2CCC([N+](=O)[O-])CC2)CC1Br` (stereo unspecified), the survivor count under setting [4] is recorded as 0 of 3.
Regarding `CN1COc2cc3c(cc2C1)OCN(C)C3`, the survivor count (T/C endpoint: mean survival time, dose: 400.0 mg/kg/injection, schedule: Q01DX001 (ip), vehicle: saline with Tween-80) is reported as 0 of 3.
For the molecule `CC(=O)C[n+]1ccc(C)cc1Sc1ccccc1C`, where the note is “T/C endpoint: median survival time, dose: 200.0 mg/kg/injection, schedule: Q01DX009 (ip), vehicle: saline with Tween-80”, the survivor count is listed as 4 of 6.
Regarding `C[N+]1(C)N=C([O-])N(c2cccc3ccccc23)C1=O`, the survivor count under setting [2] was 3 of 6.
With `O=C(O)/C=C/C(=O)Nc1ccc(N=Nc2ccccc2)cc1`, the survivor count under setting [6] was 3 of 6.

These data come from PubChem BioAssay AID256 (DTP/NCI, 2004).
